## Assay results

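HEK-293 cells carrying an ATXN2-luciferase reporter; luminescence signal loss after 24 h of compound exposure, with a parallel cell viability readout.
Compounds were tested as a dilution series from about 0.0037 to 57 µM.
The number is the fitted half-maximal inhibitory concentration (AC50); a lower value means a more potent inhibitor.
Calls come from curve class and activity score: actives score 40–100, while inconclusive compounds (weak, partial, poorly fitted or single-point curves) score 1–39.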

Values are in nM.
Every entry below has the call inconclusive.
These entries are mostly ones the record files as inconclusive; other results of the assay are not listed here.
A potency from a partial, single-point or poor curve is only a rough figure.
Activity scores are not listed here.

| Compound | potency (nM) | remark |
|---|---|---|
| `CC(=O)Nc1cccc(-c2ccnc3c2CC(C)(C(=O)Nc2ccc(Cl)c(C(F)(F)F)c2)O3)c1` (configuration not stated) | 31622 | inhibitor, single point |
| `[O-][n+]1onc2c1CCc1c-2nn(-c2ccccc2Cl)[n+]1[O-]` | 31622 | inhibitor, partial curve, poor fit |
| `COc1cc(NC(=O)c2cc(-c3ccccc3)nc3c2cnn3C(C)C)cc(OC)c1OC` | 3981 | inhibitor, partial curve |
| `CCOC(=O)c1cnc2ccc(OC)cc2c1Nc1ccc(N2CCN(C)CC2)cc1` | 28183 | inhibitor, single point |
| `CN(C)CCNC(=O)c1cccc2nc3cccc(F)c3nc12` | 10000 | inhibitor, partial curve, poor fit |
| `CCCCCn1c(=O)c(C(=O)NCc2ccccn2)c(O)c2ccccc21` | 6310 | inhibitor, single point |
| `COc1cc(C=CC(=O)c2ccccc2)cc(OC)c1OC` | 28183 | inhibitor, single point |
| `CS(=O)(=O)c1ccc(Nc2nc(C(N)Cc3ccc(C(F)(F)F)cc3)cs2)cc1` (configuration not stated) | 25118 | inhibitor, single point |
| `Cn1c2c(c(=O)n(C)c1=O)C(C(F)(F)F)(C(F)(F)F)N=C(CCC1CCCCC1)N2` | 31622 | inhibitor, single point |
| `COCC(=O)OC/C(O)=C(\C#N)c1nc2ccccc2[nH]1` | 3162 | inhibitor, single point |
| `C=CCc1ccccc1OCC(O)CN1CCN(CCN2C(=O)c3cccc4cccc(c34)C2=O)CC1` (configuration not stated) | 28183 | inhibitor, partial curve, poor fit |
| `NS(=O)(=O)c1ccc(NC(=O)COC(=O)c2c3c(nc4ccccc24)/C(=C\c2ccc4c(c2)OCO4)CCC3)cc1` | 39810 | inhibitor, single point |
| `O=C(Nc1ccc(Cl)c([N+](=O)[O-])c1)c1ccc(NCCCN2CCOCC2)c([N+](=O)[O-])c1` | 28183 | inhibitor, single point |
| `CCc1nc2ccc(C(=O)Nc3cccc(NS(C)(=O)=O)c3)cn2c1N(C)CCCc1ccccc1` | 12589 | inhibitor, partial curve, poor fit |
| `Cc1nc2ccccc2n1-c1nc(-c2ccco2)cc(C(F)(F)F)n1` | 28183 | inhibitor, partial curve, poor fit |
| `Cc1cccc(C2CC(c3ccccc3)=NN2c2ccc(S(N)(=O)=O)cc2)c1` (configuration not stated) | 39810 | inhibitor, single point |
| `Cc1ccc(NC(=O)c2cnc(N3CCN(c4ccccn4)CC3)c3ccccc23)c(Br)c1` | 14125 | inhibitor, partial curve, poor fit |
| `NS(=O)(=O)c1ccc(CCNc2ncnc3c2c(-c2ccccc2)cn3-c2ccc(F)cc2)cc1` | 25118 | inhibitor, single point |
| `COc1ccc(C(NCC(=O)NC(C)c2ccc(Cl)cc2)c2ccccc2)cc1` (configuration not stated) | 19952 | inhibitor, single point |
| `CC(=O)OC(C)(C)/C=C/C(=O)C(C)(O)C1[C@H](O)C[C@@]2(C)C3CC=C4C(CC[C@@H](O)C4(C)C)[C@]3(CO)C(=O)C[C@]12C` (some centres not stated) | 3548 | inhibitor, partial curve, poor fit |
| `Cc1cc(C)c(C)c(OC(=O)c2sc(Cl)nc2C)c1` | 22387 | inhibitor, partial curve, poor fit |
| `O=S(=O)(Cc1cc(NCc2ccccc2)nc(-c2ccccn2)n1)c1ccccc1` | 28183 | inhibitor, single point |
| `COc1ccc(/C=C/C(=O)c2cc3cccc(OC)c3oc2=O)cc1` | 39810 | inhibitor, single point |
| `O=C(Nc1ccc(OC(F)F)c(Cl)c1)C(c1ccccc1)c1ccccc1` | 31622 | inhibitor, single point |
| `O=C(Nc1nc(-c2ccccn2)cs1)c1cc(Cl)ccc1[N+](=O)[O-]` | 1412 | inhibitor, full curve, poor fit |
| `CC(=O)c1cc(CN2CCC(C(=O)Nc3cccc(-c4cscn4)c3)CC2)cs1` | 25118 | inhibitor, partial curve, poor fit |
| `O=[N+]([O-])c1ccc2[nH]cc(S(=O)(=O)N3CCN(c4cccc(Cl)c4)CC3)c2c1` | 19952 | inhibitor, partial curve, poor fit |
| `CCOc1ccc(N(CC(=O)NCCC2=CCCCC2)S(=O)(=O)c2ccccc2)cc1` | 3162 | inhibitor, partial curve |
| `Cc1cc(C)cc(C(=O)Nc2ccc(N3CCN(C(=O)c4ccco4)CC3)cc2)c1` | 2818 | inhibitor, partial curve |
| `COc1cc2c(cc1OC)[C@@H]1C(=O)c3ccc4c(c3O[C@@H]1CO2)C[C@H](C(C)C)O4` | 8912 | inhibitor, partial curve, poor fit |
| `COc1ccc2oc(/C=C/N(C)C)c(C(=O)c3ccc(Cl)cc3)c2c1` | 28183 | inhibitor, single point |
| `Cc1ccc(NC(=O)/C=C/c2ccc(S(=O)(=O)N3CCOCC3)cc2)cc1S(=O)(=O)N(C)C` | 3162 | inhibitor, single point |

The last 3 entries again:

Compound	potency (nM)	remark
COc1cc2c(cc1OC)[C@@H]1C(=O)c3ccc4c(c3O[C@@H]1CO2)C[C@H](C(C)C)O4	8912	inhibitor, partial curve, poor fit
COc1ccc2oc(/C=C/N(C)C)c(C(=O)c3ccc(Cl)cc3)c2c1	28183	inhibitor, single point
Cc1ccc(NC(=O)/C=C/c2ccc(S(=O)(=O)N3CCOCC3)cc2)cc1S(=O)(=O)N(C)C	3162	inhibitor, single point

From PubChem BioAssay record AID1745848 (NCATS, 2022).